Among the data in publication doi:10.1101/2022.02.15.480428 are binding values, retold here.

By UniProt entry, the sequences of proteins in these tests, tags left out. Where a name states a change or a piece, a line headed by the entry shows the natural chain unless it says otherwise. Chains listed by the source or under a name are the forms on record and can include a tag or linker.
UniProt Q27497: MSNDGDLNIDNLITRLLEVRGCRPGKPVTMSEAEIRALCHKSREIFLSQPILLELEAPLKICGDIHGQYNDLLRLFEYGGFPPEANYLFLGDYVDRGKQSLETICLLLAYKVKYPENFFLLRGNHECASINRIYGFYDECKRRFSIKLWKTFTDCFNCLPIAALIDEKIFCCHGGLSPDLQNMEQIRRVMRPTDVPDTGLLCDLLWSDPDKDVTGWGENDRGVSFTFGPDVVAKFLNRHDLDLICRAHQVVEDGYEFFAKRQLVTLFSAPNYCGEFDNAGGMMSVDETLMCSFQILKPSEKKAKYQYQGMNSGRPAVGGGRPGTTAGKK
UniProt P48727: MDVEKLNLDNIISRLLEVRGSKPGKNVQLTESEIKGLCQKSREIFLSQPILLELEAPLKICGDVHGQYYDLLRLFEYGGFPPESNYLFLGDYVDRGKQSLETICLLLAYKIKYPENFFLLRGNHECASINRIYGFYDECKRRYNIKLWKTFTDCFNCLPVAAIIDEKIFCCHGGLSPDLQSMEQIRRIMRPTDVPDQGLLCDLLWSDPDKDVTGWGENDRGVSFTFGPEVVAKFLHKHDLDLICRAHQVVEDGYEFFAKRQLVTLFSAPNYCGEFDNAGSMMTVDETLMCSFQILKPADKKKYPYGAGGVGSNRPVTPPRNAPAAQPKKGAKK
UniProt P62136: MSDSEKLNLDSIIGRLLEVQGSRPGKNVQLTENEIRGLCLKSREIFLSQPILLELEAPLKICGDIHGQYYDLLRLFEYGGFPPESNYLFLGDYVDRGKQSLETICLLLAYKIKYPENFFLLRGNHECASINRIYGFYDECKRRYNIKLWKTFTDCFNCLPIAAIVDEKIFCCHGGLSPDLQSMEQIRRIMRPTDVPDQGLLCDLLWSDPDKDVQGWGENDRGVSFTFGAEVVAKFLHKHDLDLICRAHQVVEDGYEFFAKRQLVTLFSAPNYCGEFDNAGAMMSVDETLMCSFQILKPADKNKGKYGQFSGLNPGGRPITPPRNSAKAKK
UniProt P62140: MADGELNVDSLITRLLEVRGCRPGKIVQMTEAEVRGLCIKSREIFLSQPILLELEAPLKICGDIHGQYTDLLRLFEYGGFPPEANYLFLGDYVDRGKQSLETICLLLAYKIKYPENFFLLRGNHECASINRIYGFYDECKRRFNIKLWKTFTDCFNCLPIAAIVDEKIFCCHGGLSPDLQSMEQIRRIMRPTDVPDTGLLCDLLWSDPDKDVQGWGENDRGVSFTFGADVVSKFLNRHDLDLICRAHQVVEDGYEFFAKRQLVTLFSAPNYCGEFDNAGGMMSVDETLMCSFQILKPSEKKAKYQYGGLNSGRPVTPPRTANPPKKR
PP1γ2 (P36873-2, form named): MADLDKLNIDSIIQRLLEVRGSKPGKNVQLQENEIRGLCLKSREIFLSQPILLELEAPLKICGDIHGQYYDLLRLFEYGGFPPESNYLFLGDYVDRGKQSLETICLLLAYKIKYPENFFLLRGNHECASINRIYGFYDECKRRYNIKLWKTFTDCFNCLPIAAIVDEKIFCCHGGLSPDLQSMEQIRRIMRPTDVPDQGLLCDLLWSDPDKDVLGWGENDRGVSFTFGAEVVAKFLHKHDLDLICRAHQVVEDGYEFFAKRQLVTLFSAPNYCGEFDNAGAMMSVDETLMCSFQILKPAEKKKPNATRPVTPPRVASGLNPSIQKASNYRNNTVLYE

Results are given in words; binding and its absence hold for the method and conditions named. Binding seen in cells or lysates may run through a third protein. Here binding means that the protein was enriched with, or labelled near, the bait; the list need not be complete. For some assays here: A no says only that the protein was not detected with the bait. Sequences can lack the tags named with a protein.

Holding throughout (experiment): affinity purification with mass spectrometry
The target of assay [1] is T1, APE-1 endogenously tagged with 3xFLAG:GFP (C. elegans) (UniProt Q9XVN3).
T1 sequence: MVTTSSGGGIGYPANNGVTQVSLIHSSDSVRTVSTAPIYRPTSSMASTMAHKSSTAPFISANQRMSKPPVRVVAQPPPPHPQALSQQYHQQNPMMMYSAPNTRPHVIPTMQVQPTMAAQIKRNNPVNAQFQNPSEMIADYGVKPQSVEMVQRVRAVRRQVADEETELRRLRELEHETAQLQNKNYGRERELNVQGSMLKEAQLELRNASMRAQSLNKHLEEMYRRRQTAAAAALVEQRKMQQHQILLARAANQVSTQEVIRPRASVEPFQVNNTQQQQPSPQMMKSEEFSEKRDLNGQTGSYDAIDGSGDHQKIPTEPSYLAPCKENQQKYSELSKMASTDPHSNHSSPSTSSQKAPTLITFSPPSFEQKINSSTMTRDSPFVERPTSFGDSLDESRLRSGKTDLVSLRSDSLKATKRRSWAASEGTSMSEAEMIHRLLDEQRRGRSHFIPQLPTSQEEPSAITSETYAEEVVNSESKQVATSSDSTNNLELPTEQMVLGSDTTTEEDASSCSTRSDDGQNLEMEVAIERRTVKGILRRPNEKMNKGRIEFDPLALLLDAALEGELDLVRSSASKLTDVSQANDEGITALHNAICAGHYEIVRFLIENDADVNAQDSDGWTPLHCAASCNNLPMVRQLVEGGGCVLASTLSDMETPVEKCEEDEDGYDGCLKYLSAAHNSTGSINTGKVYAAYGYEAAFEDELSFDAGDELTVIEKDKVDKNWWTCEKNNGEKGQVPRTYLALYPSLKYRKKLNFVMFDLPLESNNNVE

Assay [2] addresses T2, M. musculus ASPP1 with C-terminal linker:TEV-site:HaloTag (M. musculus) (UniProt Q62415).
T2 sequence: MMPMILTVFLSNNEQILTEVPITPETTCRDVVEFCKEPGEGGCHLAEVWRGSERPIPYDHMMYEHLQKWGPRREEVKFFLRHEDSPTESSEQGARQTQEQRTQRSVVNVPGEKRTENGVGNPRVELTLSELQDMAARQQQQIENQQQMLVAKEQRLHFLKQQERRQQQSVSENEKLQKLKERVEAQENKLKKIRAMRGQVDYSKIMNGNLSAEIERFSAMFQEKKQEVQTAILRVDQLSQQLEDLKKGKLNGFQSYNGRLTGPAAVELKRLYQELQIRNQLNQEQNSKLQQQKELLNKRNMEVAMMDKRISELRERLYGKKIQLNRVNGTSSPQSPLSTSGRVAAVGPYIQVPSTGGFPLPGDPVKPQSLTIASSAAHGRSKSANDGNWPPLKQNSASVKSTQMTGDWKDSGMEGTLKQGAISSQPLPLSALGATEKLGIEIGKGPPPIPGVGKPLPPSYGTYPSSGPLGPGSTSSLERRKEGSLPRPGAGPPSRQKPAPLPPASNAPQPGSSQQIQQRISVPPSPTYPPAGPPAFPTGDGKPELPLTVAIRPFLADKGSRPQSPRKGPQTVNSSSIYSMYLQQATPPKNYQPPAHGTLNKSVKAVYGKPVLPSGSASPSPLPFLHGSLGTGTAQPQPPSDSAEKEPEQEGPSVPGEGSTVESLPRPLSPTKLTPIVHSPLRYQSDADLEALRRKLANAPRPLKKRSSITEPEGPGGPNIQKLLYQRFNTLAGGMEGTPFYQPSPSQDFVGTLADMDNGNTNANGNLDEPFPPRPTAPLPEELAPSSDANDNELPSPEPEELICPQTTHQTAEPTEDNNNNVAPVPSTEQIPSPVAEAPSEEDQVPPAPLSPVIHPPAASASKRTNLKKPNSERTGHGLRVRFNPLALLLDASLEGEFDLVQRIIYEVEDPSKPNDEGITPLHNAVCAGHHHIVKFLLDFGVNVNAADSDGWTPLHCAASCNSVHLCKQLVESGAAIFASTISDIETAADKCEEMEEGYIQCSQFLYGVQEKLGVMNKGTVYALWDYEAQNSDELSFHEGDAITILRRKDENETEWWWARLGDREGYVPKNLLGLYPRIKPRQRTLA

The target in assay [3] is T3, M. musculus ASPP2 with C-terminal linker:TEV-site:HaloTag (M. musculus) (UniProt Q8CG79).
T3 sequence: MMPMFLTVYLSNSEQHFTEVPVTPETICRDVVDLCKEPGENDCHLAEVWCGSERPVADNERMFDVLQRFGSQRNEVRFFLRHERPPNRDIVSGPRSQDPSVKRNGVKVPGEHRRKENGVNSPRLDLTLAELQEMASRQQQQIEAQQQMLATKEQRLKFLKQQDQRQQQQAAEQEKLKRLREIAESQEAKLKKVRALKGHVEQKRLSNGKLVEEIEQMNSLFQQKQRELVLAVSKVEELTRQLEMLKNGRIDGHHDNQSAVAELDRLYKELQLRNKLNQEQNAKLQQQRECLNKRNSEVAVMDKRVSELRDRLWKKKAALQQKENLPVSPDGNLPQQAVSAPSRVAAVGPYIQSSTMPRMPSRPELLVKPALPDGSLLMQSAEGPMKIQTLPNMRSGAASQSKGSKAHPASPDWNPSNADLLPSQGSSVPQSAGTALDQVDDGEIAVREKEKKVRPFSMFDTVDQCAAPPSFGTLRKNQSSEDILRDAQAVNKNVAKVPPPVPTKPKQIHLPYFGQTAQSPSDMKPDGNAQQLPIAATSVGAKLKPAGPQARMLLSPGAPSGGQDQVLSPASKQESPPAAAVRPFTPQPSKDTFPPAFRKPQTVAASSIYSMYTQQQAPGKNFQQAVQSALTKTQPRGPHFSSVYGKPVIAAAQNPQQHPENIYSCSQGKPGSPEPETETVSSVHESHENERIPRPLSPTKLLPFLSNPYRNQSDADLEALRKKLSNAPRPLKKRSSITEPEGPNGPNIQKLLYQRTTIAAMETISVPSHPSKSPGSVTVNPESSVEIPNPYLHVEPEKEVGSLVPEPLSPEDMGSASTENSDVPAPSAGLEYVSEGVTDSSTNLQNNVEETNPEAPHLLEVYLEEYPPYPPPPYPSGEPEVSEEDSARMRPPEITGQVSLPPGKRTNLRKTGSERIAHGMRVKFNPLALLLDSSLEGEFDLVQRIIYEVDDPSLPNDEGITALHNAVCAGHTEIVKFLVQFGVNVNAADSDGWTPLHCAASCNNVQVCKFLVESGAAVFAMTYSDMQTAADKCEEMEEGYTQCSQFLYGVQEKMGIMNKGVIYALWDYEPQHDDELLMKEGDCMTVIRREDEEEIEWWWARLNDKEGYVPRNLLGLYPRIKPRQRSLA

The target in assay [4] is T4, H. sapiens iASPP with C-terminal linker:TEV-site:HaloTag (H. sapiens) (UniProt Q8WUF5).
T4 sequence: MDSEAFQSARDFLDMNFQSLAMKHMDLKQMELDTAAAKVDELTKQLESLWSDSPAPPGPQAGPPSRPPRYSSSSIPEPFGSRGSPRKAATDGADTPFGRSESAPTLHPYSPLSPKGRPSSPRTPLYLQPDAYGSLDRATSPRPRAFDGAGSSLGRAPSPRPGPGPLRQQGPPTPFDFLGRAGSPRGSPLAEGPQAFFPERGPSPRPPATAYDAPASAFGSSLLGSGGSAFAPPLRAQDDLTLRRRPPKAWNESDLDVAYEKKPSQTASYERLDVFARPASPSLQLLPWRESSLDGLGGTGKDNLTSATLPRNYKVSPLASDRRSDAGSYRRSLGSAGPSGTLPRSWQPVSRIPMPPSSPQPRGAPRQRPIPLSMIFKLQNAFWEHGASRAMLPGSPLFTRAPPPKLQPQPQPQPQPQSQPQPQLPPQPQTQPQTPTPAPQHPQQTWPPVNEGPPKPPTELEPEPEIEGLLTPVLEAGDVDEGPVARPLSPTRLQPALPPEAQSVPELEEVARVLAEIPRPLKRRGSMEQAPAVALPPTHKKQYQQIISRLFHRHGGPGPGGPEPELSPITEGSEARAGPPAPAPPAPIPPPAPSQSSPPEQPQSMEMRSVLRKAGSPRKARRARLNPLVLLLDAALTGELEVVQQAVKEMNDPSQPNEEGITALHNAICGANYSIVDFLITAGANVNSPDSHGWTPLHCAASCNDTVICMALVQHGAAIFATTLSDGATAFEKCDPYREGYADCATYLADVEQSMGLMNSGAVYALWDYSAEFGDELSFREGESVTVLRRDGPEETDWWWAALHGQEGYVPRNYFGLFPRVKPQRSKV

“GSP-1 (from UniProt Q27497 1-329) (enzyme)”: the binding entry in assay [1] is listed as “no binding”.

In the case of “GSP-2 (from UniProt P48727 1-333) (enzyme)”, in assay [1], the binding result is “binds”.

Take “MLT-4 (C. elegans (endogenous in worms))”: the binding result in assay [1] is reported as “no binding”.

For the substance “PP1α (from UniProt P62136 1-330) (enzyme)”, the binding result in assay [2], in assay [3] and in assay [4] was “binds” throughout.

As for “PP1β (from UniProt P62140 1-327) (enzyme)”, the binding result in assay [2], in assay [3] and in assay [4] was “binds” throughout.

Regarding “PP1γ2 (from UniProt P36873-2 1-337) (enzyme)”, the binding result in assay [2], in assay [3] and in assay [4] was “binds” in each case.

For p53 (human) (from UniProt P04637 1-393), the binding entry in assay [3] is “no binding”.

Turning to “tubulin (C. elegans (endogenous in worms))”, in assay [1], the binding entry is recorded as “binds”.
